Results from article PMC2808252.
Numbering of substitutions follows the chain as printed. No constants are given. Whether binding was seen depends on the method and setting. In cells and extracts the contact can be indirect. Some entries that bind do so weakly or less than the wild type. For part of these data: Where a sequence is shown, tags or fusion partners need not be part of it.

How the values were obtained:
[1] = molecular target: T1, Dysbindin-V5 (human) (UniProt Q96EV8); test: co-IP; lysate of HEK293T cells transfected with Dysbindin-V5; IP with anti-V5 (control IgG beside it), Western blot with anti-NF-YB; lysis buffer 20 mM Tris-HCl pH 7.8, 0.2% NP-40, 1 mM EDTA, 150 mM NaCl; protein G Sepharose, 1 h at 4°C
T1 sequence: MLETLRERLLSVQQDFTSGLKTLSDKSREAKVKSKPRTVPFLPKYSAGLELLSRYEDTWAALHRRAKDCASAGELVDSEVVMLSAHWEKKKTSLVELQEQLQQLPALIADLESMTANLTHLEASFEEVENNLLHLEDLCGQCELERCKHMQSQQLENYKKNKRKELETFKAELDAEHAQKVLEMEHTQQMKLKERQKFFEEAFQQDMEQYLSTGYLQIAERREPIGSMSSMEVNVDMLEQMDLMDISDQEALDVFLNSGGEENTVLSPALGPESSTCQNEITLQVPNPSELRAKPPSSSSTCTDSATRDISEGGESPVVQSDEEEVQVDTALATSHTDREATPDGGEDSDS

[2] = molecular target: T2, Dysbindin (endogenous, SH-SY5Y cells) (human (endogenous in SH-SY5Y)) (UniProt Q96EV8); test: co-IP; SH-SY5Y lysate, both proteins endogenous; IP with anti-Dysbindin and blot with anti-NF-YB, and IP with anti-NF-YB and blot with anti-Dysbindin; nonspecific rabbit IgG as control; lysis buffer 20 mM Tris-HCl pH 7.8, 0.2% NP-40, 1 mM EDTA, 150 mM NaCl; 1 h at 4°C
T2 sequence: T1 sequence

[3] = molecular target: T3, Dysbindin (endogenous, adult mouse brain) (mouse (endogenous in adult mouse brain)) (UniProt Q91WZ8); test: co-IP; data not shown: adult mouse brain lysates, endogenous proteins
T3 sequence: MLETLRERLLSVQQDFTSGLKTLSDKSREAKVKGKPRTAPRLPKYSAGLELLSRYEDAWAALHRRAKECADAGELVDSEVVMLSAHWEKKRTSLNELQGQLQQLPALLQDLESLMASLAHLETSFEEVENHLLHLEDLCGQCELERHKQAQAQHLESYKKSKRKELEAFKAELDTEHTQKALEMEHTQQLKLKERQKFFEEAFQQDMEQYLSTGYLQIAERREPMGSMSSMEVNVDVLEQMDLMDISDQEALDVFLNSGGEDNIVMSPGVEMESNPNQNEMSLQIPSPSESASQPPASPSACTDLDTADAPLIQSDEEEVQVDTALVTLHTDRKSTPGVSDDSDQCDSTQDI

B1: NF-YB (endogenous, HEK293T cells) (protein, UniProt P25208 1-207)
chain: MTMDGDSSTTDASQLGISADYIGGSHYVIQPHDDTEDSMNDHEDTNGSKESFREQDIYLPIANVARIMKNAIPQTGKIAKDAKECVQECVSEFISFITSEASERCHQEKRKTINGEDILFAMSTLGFDSYVEPLKLYLQKFREAMKGEKGIGGAVTATDGLSEELTEEAFTNQLPAGLITTDGQQQNVMVYTTSYQQISGVQQIQFS
For B1, which binding [1] is on record?
The binding was “binds”.

B2: NF-YB (endogenous, SH-SY5Y cells) (protein, UniProt P25208 1-207)
chain: B1 chain
B2 was tested. Which binding [2] did it give?
The binding was “binds”.

B3: NF-YB (endogenous, adult mouse brain) (protein, UniProt P63139 1-207)
chain: B1 chain with T156S, T181A
For B3, which binding [3] is on record?
The binding was “binds”.
